Data source: PubChem BioAssay AID1259266 (Sanger Institute, 2017)
In all, the deposit lists 794 reagents; below is a part drawn at random. In the full data, 16 (2%) got an active call. 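Calls reflect knock-down alone, not drug synergy; viability seems capped at 1 and z-scores at 0.585.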 The record does not give: the amount of reagent, the time to read-out.

Screen: 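Find knock-downs that kill LS123 cells or act with anchor drugs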 (primary screen)
Cell system: LS123 human colorectal cancer cells
Knock-down reagent: siRNA pool against human genes
Challenge: anchor drugs BYL719 (1 µM), cetuximab (5 µg/ml) or trametinib (10 nM), each chosen to barely slow growth alone; DMSO vehicle as the drug-free arm
Measured: 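Replicate-averaged viability scaled to non-targeting pools, robust z-score for siRNA alone, and a synergy score per anchor drug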
Reading the numbers: robust z-score, knock-down alone: higher = more cells surviving after knock-down; viability, knock-down alone: higher = more viable cells; synergy score with trametinib and synergy score with BYL719 and synergy score with cetuximab: higher = stronger synthetic lethality with drug
Call rule: 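Essential when the robust z-score of the knock-down alone is below -3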
Meaning of the calls: active = essential (knock-down alone cuts viability); inactive = no change

| gene | robust z-score, knock-down alone | viability, knock-down alone (fraction of control) | synergy score with trametinib | synergy score with BYL719 | synergy score with cetuximab | Outcome |
| --- | --- | --- | --- | --- | --- | --- |
| PMVK | 0.0903 | 0.971 | -0.0549 | 0.0966 | -0.0412 | inactive |
| KIT | -3.04 | 0.785 | -0.147 | -0.189 | -0.156 | active |
| CDK14 | -1.73 | 0.863 | -0.0781 | -0.0164 | -0.0786 | inactive |
| PKIB | 0.585 | 1 | -0.0696 | -0.145 | -0.0122 | inactive |
| MAPK4 | 0.585 | 1 | -0.0387 | -0.0255 | 0.00678 | inactive |
| GK | 0.585 | 1 | -0.038 | -0.159 | -0.0122 | inactive |
| DLG3 | 0.585 | 1 | -0.113 | -0.159 | -0.0122 | inactive |
| AKT2 | 0.15 | 0.974 | -0.0147 | -0.135 | 0.0111 | inactive |
| IP6K1 | 0.585 | 1 | -0.186 | -0.159 | -0.0122 | inactive |
| EGFR | -0.203 | 0.953 | -0.117 | -0.0556 | -0.0137 | inactive |
| AK5 | -0.138 | 0.957 | -0.114 | -0.0416 | -0.0489 | inactive |
| GCK | -3.54 | 0.755 | -0.138 | -0.0604 | -0.0358 | active |
| MAK | -0.662 | 0.926 | -0.118 | -0.14 | -0.0601 | inactive |
| DAPK1 | 0.585 | 1 | -0.136 | -0.107 | 0.024 | inactive |
| CDK8 | 0.585 | 1 | -0.0988 | -0.12 | -0.0122 | inactive |
| KCNH2 | -2.43 | 0.821 | -0.0345 | -0.0711 | -0.0294 | inactive |
| TGFBR2 | 0.585 | 1 | -0.03 | -0.0415 | 0.0114 | inactive |
| PDGFRL | 0.585 | 1 | -0.0251 | -0.0764 | -0.0122 | inactive |
| MAP3K19 | -1.96 | 0.849 | -0.0718 | -0.044 | -0.0164 | inactive |
| PNKP | -0.961 | 0.908 | -0.0161 | -0.076 | 0.01 | inactive |
| NTRK1 | -0.464 | 0.938 | 0.0982 | 0.059 | 0.126 | inactive |
| AURKB | -0.618 | 0.929 | -0.0897 | -0.0891 | -0.0382 | inactive |
| CDK16 | 0.585 | 1 | -0.00751 | -0.0538 | -0.0122 | inactive |
| PRP4K | -0.614 | 0.929 | -0.0882 | -0.0289 | 0.0612 | inactive |
| MYO3B | 0.376 | 0.988 | 0.0124 | -0.162 | -0.0245 | inactive |
| CDK5R2 | 0.585 | 1 | -0.186 | -0.159 | -0.0122 | inactive |
| PDIK1L | 0.585 | 1 | -0.0848 | -0.159 | -0.0122 | inactive |
| BRDT | -0.224 | 0.952 | -0.221 | -0.153 | -0.0419 | inactive |
| ADCK1 | 0.498 | 0.995 | -0.0495 | -0.161 | -0.0173 | inactive |
| CDK5 | 0.585 | 1 | -0.0796 | -0.0664 | -0.0122 | inactive |
| DMPK | 0.585 | 1 | -0.0149 | 0.0323 | 0.059 | inactive |
| RYK | 0.585 | 1 | -0.13 | -0.0974 | -0.0122 | inactive |
| PSKH2 | -0.189 | 0.954 | 0.00581 | -0.132 | -0.0576 | inactive |
| ABL2 | 0.585 | 1 | -0.105 | -0.112 | -0.0122 | inactive |
| TAOK3 | 0.585 | 1 | -0.0651 | -0.0986 | 0.0315 | inactive |

Not a retest: an excerpt of the list.
| gene | robust z-score, knock-down alone | viability, knock-down alone (fraction of control) | synergy score with trametinib | synergy score with BYL719 | synergy score with cetuximab | Outcome |
| --- | --- | --- | --- | --- | --- | --- |
| MAPK4 | 0.585 | 1 | -0.0387 | -0.0255 | 0.00678 | inactive |
| GK | 0.585 | 1 | -0.038 | -0.159 | -0.0122 | inactive |
| DLG3 | 0.585 | 1 | -0.113 | -0.159 | -0.0122 | inactive |
| AKT2 | 0.15 | 0.974 | -0.0147 | -0.135 | 0.0111 | inactive |
| IP6K1 | 0.585 | 1 | -0.186 | -0.159 | -0.0122 | inactive |

More entries:
| gene | robust z-score, knock-down alone | viability, knock-down alone (fraction of control) | synergy score with trametinib | synergy score with BYL719 | synergy score with cetuximab | Outcome |
| --- | --- | --- | --- | --- | --- | --- |
| PIK3CG | 0.585 | 1 | 0.084 | 0.0126 | 0.0453 | inactive |
| CHKA | 0.585 | 1 | 0.0184 | -0.0306 | 0.137 | inactive |
| NRK | -0.252 | 0.95 | -0.039 | -0.0162 | -0.0304 | inactive |
| NEK10 | 0.585 | 1 | -0.0666 | -0.159 | -0.0122 | inactive |
| TP53BP1 | 0.585 | 1 | -0.0234 | -0.117 | -0.0122 | inactive |
| WNK4 | 0.585 | 1 | -0.0927 | -0.159 | -0.0122 | inactive |
| PRKD3 | -1.06 | 0.902 | 0.0333 | -0.0406 | 0.027 | inactive |
| KMT2B | -0.148 | 0.957 | -0.0183 | -0.0881 | -0.0428 | inactive |
| RPS6KL1 | -1 | 0.906 | 0.01 | -0.091 | -0.0557 | inactive |
| BRD2 | 0.585 | 1 | -0.186 | -0.159 | -0.0122 | inactive |
| NUP107 | 0.585 | 1 | -0.129 | -0.115 | -0.0122 | inactive |
| WNK1 | 0.585 | 1 | -0.103 | -0.0861 | -0.0122 | inactive |
| PRKAB1 | -0.843 | 0.915 | 0.0324 | 0.0534 | 0.0388 | inactive |
| GRK2 | 0.579 | 1 | 0.133 | -0.0673 | 0.0312 | inactive |
| PIM3 | 0.585 | 1 | -0.0698 | -0.139 | -0.0122 | inactive |
| TBK1 | -0.0405 | 0.963 | 0.0306 | -0.00279 | 0.0496 | inactive |
| GRK1 | 0.585 | 1 | -0.135 | -0.0912 | -0.0122 | inactive |
| MAP4K1 | 0.585 | 1 | -0.0545 | -0.0544 | 0.0136 | inactive |
| CDK6 | 0.585 | 1 | -0.13 | -0.0264 | -0.0122 | inactive |
| PIK3CA | 0.585 | 1 | -0.0992 | -0.139 | -0.0122 | inactive |
| PKN3 | 0.585 | 1 | -0.0243 | -0.019 | 0.0639 | inactive |
| MAP4K4 | 0.585 | 1 | -0.0626 | -0.0882 | -0.00444 | inactive |
| PRKD1 | 0.0698 | 0.969 | -0.059 | -0.00771 | 0.0309 | inactive |
| RPS6KA2 | -1.64 | 0.868 | -0.147 | -0.118 | 0.00399 | inactive |
| ZAP70 | -0.116 | 0.958 | -0.0608 | -0.00129 | 0.047 | inactive |
| TGFBR3 | 0.585 | 1 | -0.0535 | -0.151 | -0.0122 | inactive |
| DBF4 | 0.585 | 1 | -0.0671 | -0.139 | -0.0122 | inactive |
| JAK3 | 0.583 | 1 | -0.0506 | -0.0288 | -0.0123 | inactive |
